This note sets out measurements from PubChem BioAssay AID2685 (National Center for Advancing Translational Sciences (NCATS), 2010).

Some of the results follow. The main result of the screen is listed elsewhere. These columns were measured beside it and carry no call. Compounds called inactive in the main read-out are mostly missing here. The note in brackets gives the kind of curve behind each potency; many fits are weak.

The nature of the assay: qHTS Assay for Lipid Storage Modulators in Drosophila S3 Cells.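 For cell number change: cells counted by Cell Tracker Red CMTPX staining in the red channel.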 As to conditions: BODIPY lipid droplet fluorescence, 18-24 h; for cell number change: measured here: cell count max response, cells fed with added oleic acid. Summed up:
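Drosophila S3 cells got compounds at several concentrations plus oleic acid (400 uM solution). Laser-scanning cytometry with 488 nm excitation read lipid droplets at 500-530 nm and cells at 575-640 nm. Percent activity was relative to 20 uM Triacsin C.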

Setting [1] is: measured here: cell number channel AC50, cells fed with added oleic acid.
Setting [2] is: measured here: lipid fluorescence (Fed channel) AC50, cells fed with added oleic acid.

With `Cc1ccc(-c2nc3ncccc3o2)cc1NC(=O)COc1ccccc1`, the cell number change is 27%. For the same compound, the AC50 under setting [1] was 0.184 µM [rising, full curve, poor fit]. In addition, the AC50 under setting [2] was 6.51 µM [rising, partial curve, poor fit].

As to `O=C(NC1CCCCCCC1)c1cc(F)c(F)cc1Cl`, the cell number change is 63.1%.

For the compound `CCN(CC)C(=O)CSC1=N/C(=C/c2ccco2)C(=O)N1c1ccc(OC)c(Cl)c1`, the cell number change is -27.1%. For the same compound, under setting [2], the AC50 is 18.4 µM [falling, single point].

In the case of `NS(=O)(=O)c1cc(C(=O)NCCOc2ccccc2)c(Cl)cc1Cl`, the cell number change turned out to be 2.28%. Also, the AC50 under setting [2] is 2.06 µM [falling, full curve, poor fit].

On to `COCCN(Cc1cc2cc3c(cc2n2nnnc12)OCO3)C(=O)c1ccccc1F`, for which the cell number change was 115%. Also, the half-maximal activity concentration (AC50) under setting [1] was 0.082 µM [rising, single point].

`Cn1c2c(c(=O)n(C)c1=O)C(C(F)(F)F)(C(F)(F)F)N=C(c1ccc(Cl)cc1)N2`: the cell number change was -72.8%. Besides, the AC50 under setting [1] is 10.3 µM [falling, partial curve]. The AC50 under setting [2] was 2.59 µM [falling, full curve].

For the compound `CC(NC(=O)/C(C#N)=C/c1cn[nH]c1-c1ccccc1)c1ccccc1` (stereo not given), the cell number change was -35.4%. Further, the AC50 under setting [1] was 23.1 µM [falling, partial curve]. Besides, the AC50 under setting [2] was 23.1 µM [falling, single point].

Regarding `CCCCNC(=O)Nc1c(C(=O)OC)[nH]c2ccc(C)cc12`, the cell number change was 43%. Under setting [1], the AC50 was 0.00411 µM [rising, full curve, poor fit]. Moreover, the AC50 under setting [2] is 20.6 µM [rising, partial curve].

On to `CCc1ccccc1N=C1S/C(=C/c2ccccc2OCC(=O)N2CCOCC2)C(=O)N1C`, for which the cell number change was -55.5%. Further, the AC50 under setting [1] was 29.1 µM [falling, single point]. For the same compound, the AC50 under setting [2] is 20.6 µM [falling, partial curve].

Take `COc1ccc(C2C(C#N)=C(N)N(N(C)C)C3=C2C(=O)CC(C)(C)C3)cc1` (stereo not given): the cell number change is -5.56%. In addition, the AC50 under setting [2] was 29.1 µM [falling, single point].

Take `CN1/C(=C\C=N\O)C(C)(C)c2ccccc21`: under setting [1], the AC50 was 0.103 µM [rising, full curve, poor fit].

Take `O=C(C1CCCC1)N1CCN(S(=O)(=O)c2cccc(Cl)c2Cl)CC1`: the cell number change amounted to 11.7%. For the same compound, the AC50 under setting [2] was 6.51 µM [rising, single point].

In the case of `CC(=O)Nc1cccc(NS(=O)(=O)Cc2ccc(Cl)cc2)c1`, the cell number change was -13.8%. Besides, the AC50 under setting [2] is 0.58 µM [rising, single point].

With `COc1ccc(OC)c(NC(=O)CSc2nnc(CNC(=O)c3ccco3)o2)c1`, the AC50 under setting [2] was 0.58 µM [rising, single point].

Consider `O=C1NCCCC1C(=O)NCCNC(=O)C(F)(F)F` (stereo not given), for which the cell number change is -25.2%. Also, the concentration at half-maximal activity (AC50) under setting [1] was 4.11 µM [falling, full curve, poor fit]. The AC50 under setting [2] is 4.11 µM [falling, full curve].

With `CCN(c1ccc2c(c1)OCO2)S(=O)(=O)c1cc(Br)cc2c1N(C(=O)C1CC1)CC2`, the AC50 under setting [2] is 0.517 µM [rising, single point].

For the compound `CC1C(c2ccccc2)N(C)C(c2ccccc2)CC1(O)c1ccc(F)cc1` (stereo not given), the cell number change was -43.6%. The half-maximal activity concentration (AC50) under setting [1] was 14.6 µM [falling, single point]. Moreover, the AC50 under setting [2] was 18.4 µM [falling, single point].

Consider `CCOC(=O)c1cnc2ccc(C)cc2c1Sc1ccc(F)cc1`, for which the cell number change is -43.1%. In addition, the AC50 under setting [1] was 11.6 µM [falling, partial curve, poor fit].

As to `C#CCOC(=O)CCCC(=O)NCCCCCCCC`, the cell number change is -23.1%. The AC50 under setting [1] is 0.517 µM [falling, full curve, poor fit]. Moreover, the AC50 under setting [2] is 3.26 µM [falling, single point].

Take `Cc1[nH]c(=O)[nH]c(=O)c1S(=O)(=O)N1CCC(C(=O)N2CCN(c3cccc(C(F)(F)F)c3)CC2)CC1`: the cell number change was 73.7%. For the same compound, the AC50 under setting [1] is 3.26 µM [rising, partial curve, poor fit]. The AC50 under setting [2] was 9.2 µM [rising, partial curve].

`COc1cccc(N(CC(=O)Nc2cccc(N(C)S(C)(=O)=O)c2)S(C)(=O)=O)c1`: the cell number change is -8.09%.

In the case of `COc1ccc(C2=C(C=Nc3c(C)n(C)n(-c4ccccc4)c3=O)C(c3ccccc3C)c3ccccc3O2)cc1OC` (stereo not given), the cell number change was determined as 34.8%. Further, the AC50 under setting [1] was 1.64 µM [rising, full curve, poor fit]. In addition, the AC50 under setting [2] was 4.11 µM [rising, single point].

In the case of `CNC(=O)c1ccsc1NC(=O)C1CCN(S(=O)(=O)c2cccs2)CC1`, the cell number change was 16.9%.

For the compound `Cc1ccc(Nc2nc(-c3sc(NC(=O)c4ccco4)nc3C)cs2)cc1`, the AC50 is 0.291 µM [rising, partial curve, poor fit] under setting [1] and 0.461 µM [rising, partial curve, poor fit] under setting [2].

With `O=C(c1ccco1)N1CCN(Cc2nc3ccc([N+](=O)[O-])cc3c(=O)n2-c2ccccc2F)CC1`, the AC50 runs as follows: under setting [1], 1.84 µM [falling, partial curve]; under setting [2], 6.51 µM [falling, single point].

Consider `Cc1ccccc1C(=O)O/N=C(\N)c1ccncc1`, for which the cell number change came to 38.5%. The AC50 under setting [1] was 25.9 µM [rising, single point]. Moreover, under setting [2], the AC50 is 11.6 µM [rising, single point].

Consider `CC(C)(C)C1CCC(=NNc2nc3ccccc3[nH]2)CC1` (stereo not given), for which the AC50 under setting [2] was 0.82 µM [rising, full curve].

As for `COc1cc(NS(=O)(=O)c2cc(C)ccc2OC)c(OC)cc1Cl`, the cell number change is -9.66%. The AC50 under setting [2] was 1.46 µM [rising, full curve, poor fit].

With `CCn1c2c(c3cc(Br)ccc31)CCC/C2=N\O`, the cell number change is -43.7%. Also, the AC50 under setting [1] is 29.1 µM [falling, single point]. For the same compound, the AC50 under setting [2] was 0.82 µM [rising, full curve, poor fit].

`COc1ccc(N(CC(=O)NCCSCc2c(F)cccc2Cl)S(C)(=O)=O)cc1OC`: the cell number change is 36.9%. For the same compound, the AC50 under setting [1] is 13 µM [rising, partial curve]. Further, under setting [2], the AC50 is 20.6 µM [rising, partial curve].

`CCCCn1c(CN2CCN(CCO)CC2)nc2ccccc21`: the cell number change was -40.8%. Moreover, the AC50 under setting [1] was 29.1 µM [falling, single point]. For the same compound, the AC50 under setting [2] is 29.1 µM [falling, single point].

With `CC(=O)Oc1ccc2cc(-c3ccccc3)c(=O)oc2c1`, the cell number change amounted to 12.1%. In addition, the AC50 under setting [2] was 4.11 µM [rising, full curve, poor fit].

Regarding `COc1ccc(C2(c3ccc(OC)cc3)NC(=O)N(CC(=O)NC3CCCC3)C2=O)cc1`, the cell number change is -8.5%.

On to `CCCC(=O)Nc1ccc(N2CCCCC2)cc1`, for which the cell number change came to 8.69%. For the same compound, the AC50 under setting [2] was 0.58 µM [falling, partial curve, poor fit].

Turning to `CCN(CC)S(=O)(=O)c1ccc2oc(C(=O)NCC3COc4ccccc4O3)c(C)c2c1` (stereo not given), the AC50 under setting [2] is 0.58 µM [falling, full curve].

For `Cn1cnnc1SCC(=O)NCCc1ccc(Cl)cc1Cl`, the cell number change turned out to be 14%.

As to `CC(C)c1ccc(C2/C(=C(/O)c3ccc(F)cc3)C(=O)C(=O)N2CCCN2CCOCC2)cc1` (stereo not given), the cell number change amounted to 29.1%. Under setting [2], the AC50 is 23.1 µM [rising, single point].

Consider `C/C(N)=C(/C#N)C(=O)CN1CCCCC1`, for which the cell number change is -17.6%. For the same compound, the AC50 under setting [2] was 2.31 µM [falling, full curve].

`COc1ccc(C2C(C#N)=C(N)OC3=C2C(=O)CCC3)cc1OC` (stereo not given): the cell number change is 17.2%. Under setting [2], the half-maximal activity concentration (AC50) was 0.116 µM [rising, full curve, poor fit].

For the compound `COc1ccc(-c2nc(CS(=O)CC(=O)NCc3ccc(C)cc3)c(C)o2)cc1OC` (stereo not given), the AC50 under setting [2] was 6.51 µM [rising, single point].

Take `CN1C(=O)C(CC(=O)Nc2ccccc2F)N(NC(=O)c2ccc(Br)cc2)C1=S` (stereo not given): the cell number change is -37.1%. In addition, the AC50 under setting [1] was 25.9 µM [falling, partial curve, poor fit].

For `O=C1CCC(C(=O)N2CCSCC2)CN1CCc1cccc(F)c1` (stereo not given), the cell number change stood at 1.51%. In addition, under setting [2], the AC50 is 0.00517 µM [rising, full curve, poor fit].

Consider `CC(=O)c1c(C)oc2ccc(NS(=O)(=O)c3ccc(F)cc3C)cc12`, for which the cell number change was 21.1%.

Take `O=S(=O)(c1ccc(F)cc1)N1CCC2(CC1)OCCN2S(=O)(=O)c1cccs1`: the cell number change is -10.7%. The concentration at half-maximal activity (AC50) under setting [2] was 20.6 µM [falling, single point].

In the case of `Cn1c(N)c(C(=O)COC(=O)CCC(=O)c2ccc(F)cc2)c(=O)n(C)c1=O`, the cell number change is 9.89%.

In the case of `CCN(CC)S(=O)(=O)c1ccc2c(c1)nc(CCC(=O)Nc1ccc3c(c1)OCO3)n2C`, the cell number change was found to be 27.1%. The AC50 under setting [2] was 0.411 µM [rising, full curve].

Take `Cc1ccc(S(=O)(=O)N2CCN(C(=O)CSc3ncn[nH]3)CC2)c(C)c1`: the AC50 under setting [2] was 6.51 µM [rising, single point].

Regarding `CCCOc1ccc(N2C(=O)C3ON(c4ccccc4)C(CCC)C3C2=O)cc1` (stereo not given), under setting [2], the AC50 is 6.51 µM [falling, single point].

Turning to `Cc1ccc(OCC(O)CN2CCN(CC(O)COC(C)C)CC2)c(C(C)(C)C)c1` (stereo not given), the cell number change stood at 3.05%. In addition, under setting [2], the AC50 is 29.1 µM [rising, single point].

Regarding `CCOc1cc(/C=C\[N+](=O)[O-])ccc1OCC(=O)N1CCOCC1`, the cell number change is -93.1%. Also, under setting [1], the AC50 was 8.2 µM [falling, partial curve]. For the same compound, under setting [2], the concentration at half-maximal activity (AC50) was 29.1 µM [falling, partial curve].

As for `CCc1ccc(-c2nc(CN3CCC(C(=O)N4CCN(c5ccccn5)CC4)CC3)c(C)o2)cc1`, the cell number change is -41.3%. Under setting [1], the AC50 was 29.1 µM [falling, single point]. Also, the AC50 under setting [2] is 16.4 µM [falling, single point].

Consider `COc1ccc2oc(C(=O)NN3C(C)CCCC3C)c(C)c2c1` (stereo not given), for which the cell number change was -12.5%.

Consider `O=C(NC(C(=O)O)c1ccccc1)c1ccccc1` (stereo not given), for which the cell number change was 4.98%.

On to `Cc1[nH]c2ccccc2c1C(=O)CN1CCCC(C)C1` (stereo not given), for which the cell number change came out at 12.4%. For the same compound, the half-maximal activity concentration (AC50) under setting [2] was 0.13 µM [rising, full curve, poor fit].

Turning to `Cc1ccccc1C(=O)Nc1ccc(-c2nc3ccc(C(=O)c4ccccc4)cc3[nH]2)cc1`, the cell number change was -26.3%. The AC50 under setting [1] is 0.326 µM [rising, single point]. The AC50 under setting [2] is 29.1 µM [falling, single point].
